The supplement of paper PMC12067093, “Discovery and optimisation of a covalent ligand for TRIM25 and its application to targeted protein ubiquitination” (Chemical Science, 2025)
This is one part of the list.

Sequences of proteins named here, by UniProt entry; tags and fusion partners are left off. A change or cut given only in a name is not applied to a line headed by its entry.
UniProt P48444: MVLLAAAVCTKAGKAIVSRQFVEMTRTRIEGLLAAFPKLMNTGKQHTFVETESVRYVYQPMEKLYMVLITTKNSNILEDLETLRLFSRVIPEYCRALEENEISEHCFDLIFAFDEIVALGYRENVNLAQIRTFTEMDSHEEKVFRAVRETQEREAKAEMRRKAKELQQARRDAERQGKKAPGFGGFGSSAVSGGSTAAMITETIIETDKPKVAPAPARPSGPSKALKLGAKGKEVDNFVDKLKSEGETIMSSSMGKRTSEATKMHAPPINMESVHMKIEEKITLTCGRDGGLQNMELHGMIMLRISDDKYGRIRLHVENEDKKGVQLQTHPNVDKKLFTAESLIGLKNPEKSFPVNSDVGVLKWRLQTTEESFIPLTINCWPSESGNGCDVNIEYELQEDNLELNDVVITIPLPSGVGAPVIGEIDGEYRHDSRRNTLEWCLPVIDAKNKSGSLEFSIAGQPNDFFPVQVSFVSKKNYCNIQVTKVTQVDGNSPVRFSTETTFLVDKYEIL
UniProt Q9NVT9: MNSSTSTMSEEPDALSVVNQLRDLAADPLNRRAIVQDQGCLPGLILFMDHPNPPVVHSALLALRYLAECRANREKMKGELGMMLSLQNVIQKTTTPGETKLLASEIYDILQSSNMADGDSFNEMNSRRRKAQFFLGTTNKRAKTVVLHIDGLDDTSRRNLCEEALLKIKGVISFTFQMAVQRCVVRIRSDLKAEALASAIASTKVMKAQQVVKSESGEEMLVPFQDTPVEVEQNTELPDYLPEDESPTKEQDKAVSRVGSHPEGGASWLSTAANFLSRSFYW
UniProt O60306: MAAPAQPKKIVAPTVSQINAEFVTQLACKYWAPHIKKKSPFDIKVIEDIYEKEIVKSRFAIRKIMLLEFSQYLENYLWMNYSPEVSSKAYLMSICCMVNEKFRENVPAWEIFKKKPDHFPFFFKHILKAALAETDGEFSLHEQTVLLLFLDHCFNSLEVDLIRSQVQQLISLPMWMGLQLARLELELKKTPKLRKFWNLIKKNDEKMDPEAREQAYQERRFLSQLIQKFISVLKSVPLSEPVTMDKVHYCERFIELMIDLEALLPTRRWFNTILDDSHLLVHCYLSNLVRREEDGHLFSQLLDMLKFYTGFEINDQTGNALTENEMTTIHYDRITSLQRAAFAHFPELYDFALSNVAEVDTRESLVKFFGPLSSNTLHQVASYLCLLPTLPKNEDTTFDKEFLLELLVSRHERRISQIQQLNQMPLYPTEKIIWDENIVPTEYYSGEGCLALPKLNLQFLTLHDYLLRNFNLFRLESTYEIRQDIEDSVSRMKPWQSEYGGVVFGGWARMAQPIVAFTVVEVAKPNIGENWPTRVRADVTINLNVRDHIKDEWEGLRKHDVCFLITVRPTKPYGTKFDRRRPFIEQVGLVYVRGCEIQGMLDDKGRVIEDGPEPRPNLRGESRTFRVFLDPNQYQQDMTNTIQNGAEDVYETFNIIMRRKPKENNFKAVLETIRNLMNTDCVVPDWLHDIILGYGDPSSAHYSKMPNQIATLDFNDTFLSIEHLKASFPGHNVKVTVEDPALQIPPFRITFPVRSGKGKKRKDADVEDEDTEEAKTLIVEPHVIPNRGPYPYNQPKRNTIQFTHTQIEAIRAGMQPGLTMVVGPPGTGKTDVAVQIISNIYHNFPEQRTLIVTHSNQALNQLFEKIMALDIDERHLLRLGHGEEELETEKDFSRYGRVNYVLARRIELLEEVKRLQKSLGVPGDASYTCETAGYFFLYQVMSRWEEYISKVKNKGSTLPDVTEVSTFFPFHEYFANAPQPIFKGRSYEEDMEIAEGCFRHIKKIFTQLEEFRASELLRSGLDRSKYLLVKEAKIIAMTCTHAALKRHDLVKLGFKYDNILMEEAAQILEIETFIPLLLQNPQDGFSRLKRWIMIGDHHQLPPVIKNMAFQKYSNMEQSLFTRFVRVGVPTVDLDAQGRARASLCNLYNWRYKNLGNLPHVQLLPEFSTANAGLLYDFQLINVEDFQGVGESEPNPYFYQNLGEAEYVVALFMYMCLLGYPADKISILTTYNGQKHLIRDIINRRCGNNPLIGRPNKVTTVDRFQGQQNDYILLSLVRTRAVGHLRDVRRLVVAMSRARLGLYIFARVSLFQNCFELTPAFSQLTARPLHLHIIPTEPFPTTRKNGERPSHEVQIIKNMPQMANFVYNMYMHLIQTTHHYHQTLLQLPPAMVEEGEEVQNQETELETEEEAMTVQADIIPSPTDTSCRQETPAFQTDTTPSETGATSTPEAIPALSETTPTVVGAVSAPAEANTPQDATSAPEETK
UniProt P10398: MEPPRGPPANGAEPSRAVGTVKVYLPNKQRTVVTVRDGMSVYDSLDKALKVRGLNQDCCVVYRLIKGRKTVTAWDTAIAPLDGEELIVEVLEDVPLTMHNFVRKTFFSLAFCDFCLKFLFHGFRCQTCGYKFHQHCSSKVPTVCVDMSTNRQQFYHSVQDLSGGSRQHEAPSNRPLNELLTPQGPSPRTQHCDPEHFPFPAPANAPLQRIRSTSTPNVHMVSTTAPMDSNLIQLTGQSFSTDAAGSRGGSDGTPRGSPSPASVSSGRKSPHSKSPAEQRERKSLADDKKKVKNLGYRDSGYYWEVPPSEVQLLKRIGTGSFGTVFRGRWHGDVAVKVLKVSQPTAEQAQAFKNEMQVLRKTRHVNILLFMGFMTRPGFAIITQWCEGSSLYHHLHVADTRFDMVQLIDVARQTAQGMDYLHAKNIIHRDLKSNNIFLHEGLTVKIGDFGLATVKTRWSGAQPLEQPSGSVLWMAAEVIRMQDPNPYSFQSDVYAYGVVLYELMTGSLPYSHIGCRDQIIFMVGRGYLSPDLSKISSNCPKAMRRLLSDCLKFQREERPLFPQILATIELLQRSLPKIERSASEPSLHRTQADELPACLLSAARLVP
UniProt Q92974: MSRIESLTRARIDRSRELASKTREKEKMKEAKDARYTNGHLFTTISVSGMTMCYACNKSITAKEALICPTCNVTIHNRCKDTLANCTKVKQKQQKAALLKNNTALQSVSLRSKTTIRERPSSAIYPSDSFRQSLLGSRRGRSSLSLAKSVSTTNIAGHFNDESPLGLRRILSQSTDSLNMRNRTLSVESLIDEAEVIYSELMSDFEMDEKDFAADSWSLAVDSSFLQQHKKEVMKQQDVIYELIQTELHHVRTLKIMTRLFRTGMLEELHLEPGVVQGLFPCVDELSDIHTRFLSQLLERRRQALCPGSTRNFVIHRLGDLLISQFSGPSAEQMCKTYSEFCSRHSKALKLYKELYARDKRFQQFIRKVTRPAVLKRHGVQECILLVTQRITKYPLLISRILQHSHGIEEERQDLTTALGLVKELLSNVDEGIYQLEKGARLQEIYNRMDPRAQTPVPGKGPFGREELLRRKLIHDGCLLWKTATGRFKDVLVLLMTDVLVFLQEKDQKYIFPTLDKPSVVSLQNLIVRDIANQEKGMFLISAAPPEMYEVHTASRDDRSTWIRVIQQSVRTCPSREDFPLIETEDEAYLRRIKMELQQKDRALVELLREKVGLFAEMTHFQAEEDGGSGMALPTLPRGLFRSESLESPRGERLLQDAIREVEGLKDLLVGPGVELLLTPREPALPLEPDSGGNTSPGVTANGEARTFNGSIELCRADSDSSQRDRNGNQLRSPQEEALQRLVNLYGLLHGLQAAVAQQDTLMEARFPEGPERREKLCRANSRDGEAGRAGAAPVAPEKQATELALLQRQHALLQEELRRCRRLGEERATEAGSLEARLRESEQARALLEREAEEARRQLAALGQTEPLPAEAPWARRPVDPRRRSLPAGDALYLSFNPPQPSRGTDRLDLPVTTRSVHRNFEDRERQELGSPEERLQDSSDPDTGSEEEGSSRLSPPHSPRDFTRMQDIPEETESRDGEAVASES
UniProt Q15052: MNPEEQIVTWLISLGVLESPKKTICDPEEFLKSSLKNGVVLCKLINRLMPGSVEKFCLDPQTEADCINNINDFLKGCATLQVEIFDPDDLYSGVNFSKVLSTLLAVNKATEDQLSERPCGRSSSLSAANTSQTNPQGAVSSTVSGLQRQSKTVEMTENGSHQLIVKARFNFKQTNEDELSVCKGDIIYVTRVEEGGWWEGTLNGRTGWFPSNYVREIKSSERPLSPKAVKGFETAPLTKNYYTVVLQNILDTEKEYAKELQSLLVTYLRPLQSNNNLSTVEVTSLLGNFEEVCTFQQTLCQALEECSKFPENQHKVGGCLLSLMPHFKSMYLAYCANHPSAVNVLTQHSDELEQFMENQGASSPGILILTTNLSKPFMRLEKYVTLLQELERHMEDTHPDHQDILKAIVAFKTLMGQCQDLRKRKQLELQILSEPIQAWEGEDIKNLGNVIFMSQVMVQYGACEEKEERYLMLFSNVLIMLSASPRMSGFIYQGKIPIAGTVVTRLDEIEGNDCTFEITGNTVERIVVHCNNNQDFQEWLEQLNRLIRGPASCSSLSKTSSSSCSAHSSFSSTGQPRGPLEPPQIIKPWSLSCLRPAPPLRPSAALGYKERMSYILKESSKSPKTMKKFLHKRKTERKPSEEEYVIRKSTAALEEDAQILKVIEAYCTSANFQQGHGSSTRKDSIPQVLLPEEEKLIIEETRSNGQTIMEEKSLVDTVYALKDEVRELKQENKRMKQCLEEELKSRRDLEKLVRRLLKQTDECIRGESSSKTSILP
UniProt Q68CP9, whole entry, looked up: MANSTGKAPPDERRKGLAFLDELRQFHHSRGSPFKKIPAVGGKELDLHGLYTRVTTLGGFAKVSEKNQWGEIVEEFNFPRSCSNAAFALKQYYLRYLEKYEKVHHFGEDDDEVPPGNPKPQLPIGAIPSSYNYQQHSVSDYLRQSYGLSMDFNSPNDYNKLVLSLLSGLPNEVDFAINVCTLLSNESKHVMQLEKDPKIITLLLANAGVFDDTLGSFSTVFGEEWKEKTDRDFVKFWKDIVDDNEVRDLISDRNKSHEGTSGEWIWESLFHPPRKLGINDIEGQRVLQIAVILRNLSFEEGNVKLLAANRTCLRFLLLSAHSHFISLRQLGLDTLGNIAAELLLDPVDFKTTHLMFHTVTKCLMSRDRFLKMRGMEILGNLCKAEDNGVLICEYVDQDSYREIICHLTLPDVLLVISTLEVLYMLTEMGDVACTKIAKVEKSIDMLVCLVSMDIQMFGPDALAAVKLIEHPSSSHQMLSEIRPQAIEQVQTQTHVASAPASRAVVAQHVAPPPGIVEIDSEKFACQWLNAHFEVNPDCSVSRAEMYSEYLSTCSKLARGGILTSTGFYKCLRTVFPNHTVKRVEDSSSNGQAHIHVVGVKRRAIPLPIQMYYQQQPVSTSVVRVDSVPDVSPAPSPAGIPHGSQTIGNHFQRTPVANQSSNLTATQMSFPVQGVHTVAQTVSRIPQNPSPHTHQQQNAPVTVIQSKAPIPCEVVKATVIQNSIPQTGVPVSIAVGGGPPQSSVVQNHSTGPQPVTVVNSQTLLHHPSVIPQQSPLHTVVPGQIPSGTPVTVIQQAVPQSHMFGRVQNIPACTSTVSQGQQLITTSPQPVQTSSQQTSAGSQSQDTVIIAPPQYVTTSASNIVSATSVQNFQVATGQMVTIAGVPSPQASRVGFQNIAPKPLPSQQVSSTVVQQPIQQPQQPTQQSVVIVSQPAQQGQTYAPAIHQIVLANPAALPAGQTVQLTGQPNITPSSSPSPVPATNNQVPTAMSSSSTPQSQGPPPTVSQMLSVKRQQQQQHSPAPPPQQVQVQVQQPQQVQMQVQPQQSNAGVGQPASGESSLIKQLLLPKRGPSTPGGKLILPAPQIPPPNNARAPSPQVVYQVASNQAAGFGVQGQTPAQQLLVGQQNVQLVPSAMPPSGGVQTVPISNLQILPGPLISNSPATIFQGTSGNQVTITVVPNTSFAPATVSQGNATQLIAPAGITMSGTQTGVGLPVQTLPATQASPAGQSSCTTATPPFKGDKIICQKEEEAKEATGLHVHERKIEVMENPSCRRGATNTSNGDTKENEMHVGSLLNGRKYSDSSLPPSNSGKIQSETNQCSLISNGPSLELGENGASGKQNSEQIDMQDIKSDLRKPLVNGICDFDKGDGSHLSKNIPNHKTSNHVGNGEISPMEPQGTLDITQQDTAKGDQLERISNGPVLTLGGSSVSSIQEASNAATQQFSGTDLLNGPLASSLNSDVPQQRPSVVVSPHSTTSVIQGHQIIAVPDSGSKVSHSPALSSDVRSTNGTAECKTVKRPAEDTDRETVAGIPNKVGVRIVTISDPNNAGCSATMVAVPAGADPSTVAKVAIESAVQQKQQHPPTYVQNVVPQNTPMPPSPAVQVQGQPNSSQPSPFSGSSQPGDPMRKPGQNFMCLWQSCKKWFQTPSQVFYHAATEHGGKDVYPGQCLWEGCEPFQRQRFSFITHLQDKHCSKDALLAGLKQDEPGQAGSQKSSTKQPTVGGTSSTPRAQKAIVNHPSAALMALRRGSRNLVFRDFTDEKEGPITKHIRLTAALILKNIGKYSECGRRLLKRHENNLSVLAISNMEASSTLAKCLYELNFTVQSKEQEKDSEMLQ

Compound: Cc1cc(ccc1-c1ccccc1)C(=O)N1CCCN(CC1)C(=O)CCl [compound 10]
Experiment: probe-labelled cysteine peptide fold change vs DMSO (competition) (log2 fold change); higher = less target engagement (more negative = stronger competition)
Details: THP-1, incubation time: 4 h
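Further: competitive profiling in live THP-1 cells: cysteine peptides tagged with an iodoacetamide desthiobiotin (IA-DTB) probe, intensity after compound treatment relative to DMSO-treated cells.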

Target | probe-labelled cysteine peptide fold change (10 µM) | probe-labelled cysteine peptide fold change (50 µM)
ARIH1_Q9Y4X5_418_YLFYCNR (UniProt Q9Y4X5) | 0.0904 | 0.506
ARCN1_P48444_441_RNTLEWCLPVIDAK (UniProt P48444) | 0.129 | -0.00667
ARL1_P40616_95_CYYSNTDAVIYVVDSCDRDR (UniProt P40616) | 0.0139 | -0.306
ARL2_P36404_102_MQDCQR (UniProt P36404) | 0.0663 | 0.348
ARIH1_Q9Y4X5_269_YQHLITNSFVECNR (UniProt Q9Y4X5) | -0.0171 | 0.0363
ARHGAP15_Q53QZ3_140_TGHKPESVDLCGAHIEWAK (UniProt Q53QZ3) | -0.0935 | -0.296
ARMC1_Q9NVT9_161_NLCEEALLK (UniProt Q9NVT9) | 0.00245 | 0.398
AQR_O60306_28_KIVAPTVSQINAEFVTQLACK (UniProt O60306) | 0.0774 | -0.504
ARAF_P10398_597_TQADELPACLLSAAR (UniProt P10398) | -0.464 | -0.595
APP_P05067_158_ETCSEK (UniProt P05067) | -0.247 | -0.328
ARHGEF2_Q92974_573_TCPSREDFPLIETEDEAYLR (UniProt Q92974) | -0.0619 | -0.269
ARHGEF6_Q15052_182_QTNEDELSVCK (UniProt Q15052) | 0.0773 | 0.00472
ARHGEF2_Q92974_68_EALICPTCNVTIHNR (UniProt Q92974) | -0.00613 | 0.0522
ARMC1_Q9NVT9_69_YLAECR (UniProt Q9NVT9) | -0.137 | -0.537
ARPC1B_O15143_227_VAWVSHDSTVCLADADK (UniProt O15143) | 0.251 | 0.312
ARL6IP1_Q15041_109_FHEICSNLVK (UniProt Q15041) | 0.0846 | 0.185
AQR_O60306_96_AYLMSICCMVNEK (UniProt O60306) | 0.0481 | 0.225
ARHGAP45_Q92619_469_TCVADAK (UniProt Q92619) | 0.126 | -0.0757
ARPC1B_O15143_13_AYHSFLVEPISCHAWNK (UniProt O15143) | 0.161 | -0.0729
ARAF_P10398_192_TQHCDPEHFPFPAPANAPLQR (UniProt P10398) | -0.229 | -0.296

Quoted from the listing:
Entry for ARPC1B_O15143_13_AYHSFLVEPISCHAWNK (UniProt O15143) under probe-labelled cysteine peptide fold change (10 µM): 0.161
Entry for ARMC1_Q9NVT9_161_NLCEEALLK (UniProt Q9NVT9) under probe-labelled cysteine peptide fold change (50 µM): 0.398
Entry for AQR_O60306_96_AYLMSICCMVNEK (UniProt O60306) under probe-labelled cysteine peptide fold change (10 µM): 0.0481

Later entries

Target | probe-labelled cysteine peptide fold change (10 µM) | probe-labelled cysteine peptide fold change (50 µM)
ARID2_Q68CP9_1271_IEVMENPSCR (UniProt Q68CP9) | -0.0221 | -0.133
ARID1A_O14497_1874_TELLPSRPHAPCPPAPR (UniProt O14497) | -0.093 | -0.032
ARMT1_Q9H993_398_KWEFSVPFHQALNGFHPAPLCTIR (UniProt Q9H993) | -0.0109 | 0.0403
ARAP1_Q96P48_900_AVFPEGPCEEPLQLR (UniProt Q96P48) | -0.318 | -0.319
ARHGEF10_O15013_1030_STVMSLACTSQSLYAGLVNGAVASYAR (UniProt O15013) | 0.309 | 0.376
ARHGEF12_Q9NZN5_784_EVLLGLKPCEIK (UniProt Q9NZN5) | -0.275 | -0.43
APOOL_Q6UXV4_74_TATGCYIGWCK (UniProt Q6UXV4) | -0.823 | -1.75
ARID2_Q68CP9_1271_KIEVMENPSCR (UniProt Q68CP9) | -0.27 | -0.345
ARHGAP9_Q9BRR9_666_AALALSESEQCLSQIQELIGSMPKPNHDTLR (UniProt Q9BRR9) | -0.0897 | -0.281
ARHGAP17_Q68EM7_53_LVACFQGQHGTDAER (UniProt Q68EM7) | 0.108 | 0.131
ARHGAP25_P42331_154_VAGTPCGVFGQR (UniProt P42331) | 0.0161 | -0.205
ARF3_P61204_159_HRNWYIQATCATSGDGLYEGLDWLANQLK (UniProt P61204) | -0.312 | -0.322
ARHGEF6_Q15052_530_IVVHCNNNQDFQEWLEQLNR (UniProt Q15052) | 0.0109 | 0.158
ARCN1_P48444_441_NTLEWCLPVIDAK (UniProt P48444) | 0.0518 | 0.0976
ARFRP1_Q13795_19_DEYCILILGLDNAGK (UniProt Q13795) | 0.0244 | 0.17
ARRB1_P49407_140_ACGVDYEVK (UniProt P49407) | -0.366 | -0.101
ARHGEF17_Q96PE2_1439_LELCATRPEGTDSYIFEFPHPDAR (UniProt Q96PE2) | -0.165 | -0.0257
ARHGEF40_Q8TER5_636_LLILIHDDLPTELCGFQGAEVLSENDLKR (UniProt Q8TER5) | -0.15 | -0.378
APPL1_Q9UKG1_368_DHEEWICTINNISK (UniProt Q9UKG1) | -0.0292 | 0.0951
ARID1A_O14497_1968_ILEDEPHSKDETPLCTLLDWQDSLAK (UniProt O14497) | -0.0937 | -0.036
